# According to the supplement of paper PMC3334620:
# Whole data set: some 33,000 sequences, median “E-score (-0.5 to 0.5)” near -0.015, cut for the highest 2% near 0.3. The list shows a part of the results.
# Target: T1, Abf1 (UniProt P14164)
# T1 sequence: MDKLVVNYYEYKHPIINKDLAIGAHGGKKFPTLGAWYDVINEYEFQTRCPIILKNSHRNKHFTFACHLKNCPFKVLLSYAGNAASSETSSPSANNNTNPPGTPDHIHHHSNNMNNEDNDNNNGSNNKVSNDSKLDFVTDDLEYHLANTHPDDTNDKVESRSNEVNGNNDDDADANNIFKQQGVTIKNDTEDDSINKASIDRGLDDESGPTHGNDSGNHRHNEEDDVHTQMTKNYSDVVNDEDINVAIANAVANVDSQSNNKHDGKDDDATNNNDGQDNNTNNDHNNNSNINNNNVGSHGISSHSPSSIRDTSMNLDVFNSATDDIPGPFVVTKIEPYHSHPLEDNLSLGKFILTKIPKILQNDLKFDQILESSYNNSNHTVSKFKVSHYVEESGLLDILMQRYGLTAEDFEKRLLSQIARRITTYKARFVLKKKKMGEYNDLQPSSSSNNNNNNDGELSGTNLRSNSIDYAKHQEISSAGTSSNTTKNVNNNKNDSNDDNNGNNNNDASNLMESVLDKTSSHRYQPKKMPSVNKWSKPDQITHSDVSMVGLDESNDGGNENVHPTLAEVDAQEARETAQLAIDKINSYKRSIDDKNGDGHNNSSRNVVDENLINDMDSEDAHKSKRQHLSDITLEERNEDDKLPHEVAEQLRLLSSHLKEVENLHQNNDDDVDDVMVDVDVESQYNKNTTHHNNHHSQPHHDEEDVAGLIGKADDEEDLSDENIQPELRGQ
# Test: PBM E-score (8-mer binding enrichment) (E-score (-0.5 to 0.5)); higher = stronger / more preferred TF binding
# Settings: protein concentration: 200 nM; construct: GST-full length
# Outline: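 Bound GST-tagged yeast transcription factors, applied at about 100-200 nM to double-stranded universal all-10-mer Agilent arrays, were detected with fluorescent anti-GST. Scans were normalised with masliner. A modified Wilcoxon-Mann-Whitney statistic, the E-score, was assigned to each ungapped eight-base word pooled with its reverse complement by the Universal PBM Analysis Suite.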
row,Sequence,PBM E-score
1,ACCCGCTG,-0.0686
2,CCCCGGCG,-0.127
3,AACGGGTG,0.27
4,CTCCGACC,-0.312
5,AACACTCC,-0.121
6,AAAGCTCC,-0.0576
7,ATCCGCAA,0.0167
8,CTCTTGCC,-0.0459
9,AACGTAGA,0.0866
10,AGCTAAGC,-0.215
11,CAACTCCG,-0.208
12,ATATTTCG,0.141
13,AAGTATGC,0.0968
14,GCTTACCC,-0.233
15,TCACTCAA,0.195
16,AAACGGGC,0.151
17,ATGCCGTC,-0.00725
18,GCTTAATA,0.0372
19,CATTCGAA,-0.0243
20,ATGGTCTG,-0.0499
21,GATGTAAC,0.0725
22,GATGGGAC,-0.154
23,ATTCGTTG,0.0365
24,CCTGTCCG,-0.0665
25,CGGGAGCC,-0.133

row,Sequence,PBM E-score
1,GTGTAGCA,-0.147
2,ACCCAAAG,-0.252
3,GGAAGGCC,-0.212
4,GTGCAAAC,0.0304
5,CCTGCTTC,-0.177
6,CATATGCA,-0.139
7,TACGAAGA,0.334
8,AGCTTACT,0.0678
9,CAAGAGTG,-0.0854
10,CGTCAACA,0.0216
11,AGCTTAGA,-0.0458
12,AGGTGATA,0.357
13,CCAGAAAG,-0.0391
14,CACCCGGG,-0.108
15,ACATATTG,0.0417
16,AAGGCAGC,-0.103
17,AGGCACCC,-0.341
18,CCGGGCAC,-0.151
19,ATCAATCG,0.0642
20,CAGCAACA,0.00765
21,CGATGGTC,0.0507
22,CATAATGA,0.18
23,GGGCCCGA,-0.0496
24,ATTCGGAG,-0.0266
25,CCTTGTAG,-0.0444

row,Sequence,PBM E-score
1,AGCTCTTC,0.0624
2,ATCGACTG,-0.0459
3,TATTTACA,0.0789
4,CTCCCCCC,-0.351
5,CTCTCAAG,-0.0784
6,ATTGTGCA,0.0876
7,GAAGTCAC,0.211
8,ATGAGGTC,0.152
9,AGTGGTCA,0.159
10,CAAACGAA,0.145
11,ACTCAAAG,0.0179
12,CCACCCGG,-0.115
13,AACAAACT,0.0627
14,CTCAGCGA,0.099
15,CCTCGACC,-0.181
16,AGCAAGCC,-0.0902
17,CCGGATGA,-0.024
18,AAGCGTGA,0.16
19,ACATGCAG,0.0575
20,CTACCGAG,-0.167
21,CTTTAATA,0.0795
22,AGACAAAC,-0.0166
23,CGTCGAAC,0.246
24,AATAGGCC,-0.237
25,AACAGGTA,0.0666

row,Sequence,PBM E-score
1,CTAGTGGC,-0.065
2,AAATTTGG,-0.017
3,ATGAGTCC,-0.166
4,ATAAGCGC,-0.0316
5,CAGTTCCG,0.0263
6,CTGCACTC,-0.232
7,AGACCCCG,-0.0859
8,AGAGCCAT,-0.115
9,GCCAGTCC,-0.308
10,CGCGGCAG,0.0374
11,GACAAAGC,0.0771
12,AATGAGGG,-0.252
13,CTTGCACA,0.0331
14,CCCACGTC,0.0793
15,GATCGAGC,-0.0632
16,GACCCCTA,-0.262
17,ACTGTTTC,0.0348
18,AGCCCGAC,-0.214
19,ACCTATCT,-0.00941
20,ACGCGTAT,0.104
21,GGAGTAGA,-0.0393
22,TATCGATA,-0.105
23,ACCTGGAT,-0.113
24,AGCCTAAG,-0.0931
25,CACACAGA,-0.0416

row,Sequence,PBM E-score
1,GTTGTCTA,0.0596
2,ATCGACAG,-0.0272
3,CGTCTAAG,0.148
4,AACCTATA,0.0575
5,AGCTGGTC,-0.045
6,CTTGTCGA,0.01
7,CCAAGACG,-0.0818
8,ACTGTCCA,0.0342
9,ACAACGAG,-0.0816
10,ATGCGGTA,-0.0963
11,TATTACAA,-0.006
12,CCGTCTGC,0.146
13,AAATGTCG,0.0708
14,AGCCAAAT,-0.0482
15,AATCTCAT,0.159
16,CAGTCACA,0.134
17,CTAGGGGA,-0.123
18,CTGGTGTC,-0.221
19,CTCGACAG,-0.149
20,AAGGAGCA,-0.13
21,CACAATCC,0.0428
22,ACTCACGA,0.188
23,ATTTTTAG,0.0116
24,GACACTGC,-0.206
25,CCATAACC,-0.129

# Single entries from the results shown.
# PBM E-score, ATTTTTAG is entered as 0.0116
# PBM E-score, ATCGACAG is entered as -0.0272
# PBM E-score, ACTCACGA is entered as 0.188
# PBM E-score, GACACTGC is entered as -0.206
# PBM E-score, CCAAGACG is entered as -0.0818
# PBM E-score, CTAGGGGA is entered as -0.123

# (further entries)

row,Sequence,PBM E-score
1,GAGCTGCC,-0.0575
2,CGGAAAGA,-0.131
3,CCAAACTA,-0.0694
4,AACGAACT,-0.0418
5,TCGTCGCA,0.322
6,ACGATAGT,0.246
7,CTGGGGGC,-0.346
8,ATGAGGCG,-0.0899
9,ATCGGTTG,-0.136
10,AGCAACGG,0.136
11,AGCAATGA,0.124
12,GGAGTTCA,-0.122
13,TGATCACA,0.292
14,CGAATTCA,-0.0237
15,CCTACGTA,-0.0223
16,CTGGATCA,0.0261
17,AAATGGCG,-0.103
18,AGCCAGGC,-0.0346
19,CGGCAATA,0.166
20,TAGAACTA,-0.165
21,ACGTCCAT,-0.0592
22,AGGTGATC,0.276
23,GAGGGTAC,-0.115
24,AGCCGGTG,-0.072
25,ATCCTACC,-0.0668

row,Sequence,PBM E-score
1,CTCGCAGA,-0.217
2,ACGTATTA,0.258
3,GGGTTACA,0.0284
4,CACTCGTA,0.25
5,TCCGCTCA,-0.188
6,ATTGAAAC,-0.00069
7,ACTAATGA,0.212
8,GGAATTGA,0.0258
9,CAGGATTC,-0.0145
10,GCACCTTA,-0.171
11,ACTTAGAG,-0.136
12,CGGACTAC,0.0179
13,CAGCAGGC,0.0485
14,CGGCCACG,-0.17
15,CGATCACG,0.298
16,CGCGAAGC,0.115
17,ACAGTCTC,-0.177
18,AGCGCAGG,-0.248
19,AGTACATG,-0.0104
20,GTAGTCGA,0.0326
21,ATTACTGG,0.00696
22,ACTATGTG,-0.0226
